Laboratory results reported in PMC5791174.
Results are given in words; binding and its absence hold for the method and conditions named. In cells and extracts the contact can be indirect. Some binding calls cover weakened binding; strength is not graded here.

Sequences of proteins named here, by UniProt entry; tags and fusion partners are left off. Residues count along the entry.
UniProt O00206, residues 24-839: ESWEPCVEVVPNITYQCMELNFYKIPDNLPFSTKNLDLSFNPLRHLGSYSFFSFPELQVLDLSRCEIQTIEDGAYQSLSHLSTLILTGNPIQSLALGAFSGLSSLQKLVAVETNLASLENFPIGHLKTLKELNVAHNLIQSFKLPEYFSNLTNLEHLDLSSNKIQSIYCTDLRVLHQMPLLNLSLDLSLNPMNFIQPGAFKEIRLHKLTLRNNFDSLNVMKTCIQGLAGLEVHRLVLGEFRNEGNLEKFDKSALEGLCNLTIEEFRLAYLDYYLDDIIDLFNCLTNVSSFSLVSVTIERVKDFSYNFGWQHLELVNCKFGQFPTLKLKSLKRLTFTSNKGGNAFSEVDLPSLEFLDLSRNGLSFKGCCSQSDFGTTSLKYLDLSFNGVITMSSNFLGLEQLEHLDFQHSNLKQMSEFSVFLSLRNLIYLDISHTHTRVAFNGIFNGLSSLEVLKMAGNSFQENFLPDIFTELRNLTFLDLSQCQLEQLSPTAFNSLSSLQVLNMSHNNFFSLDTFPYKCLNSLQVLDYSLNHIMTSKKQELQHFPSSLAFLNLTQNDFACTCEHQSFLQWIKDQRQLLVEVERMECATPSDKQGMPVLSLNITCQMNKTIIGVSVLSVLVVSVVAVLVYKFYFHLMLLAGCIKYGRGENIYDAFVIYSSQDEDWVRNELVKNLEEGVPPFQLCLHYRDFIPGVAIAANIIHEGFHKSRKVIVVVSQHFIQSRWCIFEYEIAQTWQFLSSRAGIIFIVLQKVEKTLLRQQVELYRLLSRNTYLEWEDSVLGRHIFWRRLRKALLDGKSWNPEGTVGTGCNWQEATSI
UniProt Q99836: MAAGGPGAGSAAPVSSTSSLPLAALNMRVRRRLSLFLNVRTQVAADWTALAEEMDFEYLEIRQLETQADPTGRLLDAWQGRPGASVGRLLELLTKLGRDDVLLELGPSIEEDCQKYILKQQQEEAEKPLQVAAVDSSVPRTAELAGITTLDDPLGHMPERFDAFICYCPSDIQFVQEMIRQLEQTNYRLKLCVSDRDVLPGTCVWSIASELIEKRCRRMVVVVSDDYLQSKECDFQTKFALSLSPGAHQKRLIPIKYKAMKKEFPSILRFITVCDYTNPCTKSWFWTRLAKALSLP

Target: Toll-like receptor 4 (human (endogenous in resected brain tissue)) (UniProt O00206)
Test: co-IP; Pierce Co-IP kit; anti-TLR4 antibody (10 ug/mL) immobilised on AminoLink Plus resin, incubated with tissue lysate overnight, eluate blotted for MyD88 and TLR4; FCD type II lesion and peri-FCD tissue of eight patients compared

binding: binds
Substance: MyD88 (from UniProt Q99836 1-296)
